Consider three molecules from article PMC1523230, “Structural Organization of the 19S Proteasome Lid: Insights from MS of Intact Complexes” (PLoS Biology, 2006).

The target of the experiment is T1, Rpn11^H12 (S. cerevisiae), P43588.
T1 chain: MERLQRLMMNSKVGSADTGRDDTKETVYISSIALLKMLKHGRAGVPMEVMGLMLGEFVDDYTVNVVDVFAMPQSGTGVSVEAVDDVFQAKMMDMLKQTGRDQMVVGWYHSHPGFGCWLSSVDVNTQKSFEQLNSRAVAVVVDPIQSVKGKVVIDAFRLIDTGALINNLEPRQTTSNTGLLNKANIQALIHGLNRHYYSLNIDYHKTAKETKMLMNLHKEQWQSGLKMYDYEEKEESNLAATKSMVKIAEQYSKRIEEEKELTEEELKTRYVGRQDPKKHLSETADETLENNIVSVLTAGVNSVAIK
Put plainly: affinity purification with mass spectrometry; Rpn11^H12 held on Ni-NTA from yeast lysate, gel filtration; subunits identified by MALDI-TOF/TOF peptide mapping and database search. The note with it: remark: other sources report otherwise.

No constants are given. Whether binding was seen depends on the method and setting. Binding seen in cells or lysates may run through a third protein. Here binding means that the protein was enriched with, or labelled near, the bait; the list need not be complete.

B1: Rpn6, Q12377 1-434 (protein)
chain: MSLPGSKLEEARRLVNEKQYNEAEQVYLSLLDKDSSQSSAAAGASVDDKRRNEQETSILELGQLYVTMGAKDKLREFIPHSTEYMMQFAKSKTVKVLKTLIEKFEQVPDSLDDQIFVCEKSIEFAKREKRVFLKHSLSIKLATLHYQKKQYKDSLALINDLLREFKKLDDKPSLVDVHLLESKVYHKLRNLAKSKASLTAARTAANSIYCPTQTVAELDLMSGILHCEDKDYKTAFSYFFESFESYHNLTTHNSYEKACQVLKYMLLSKIMLNLIDDVKNILNAKYTKETYQSRGIDAMKAVAEAYNNRSLLDFNTALKQYEKELMGDELTRSHFNALYDTLLESNLCKIIEPFECVEISHISKIIGLDTQQVEGKLSQMILDKIFYGVLDQGNGWLYVYETPNQDATYDSALELVGQLNKVVDQLFEKASVLY
With B1, the binding result was “binds”.

B2: Rpn12, P32496 1-274 (protein)
chain: MPSLAELTKSLSIAFENGDYAACEKLLPPIKIELIKNNLLIPDLSIQNDIYLNDLMITKRILEVGALASIQTFNFDSFENYFNQLKPYYFSNNHKLSESDKKSKLISLYLLNLLSQNNTTKFHSELQYLDKHIKNLEDDSLLSYPIKLDRWLMEGSYQKAWDLLQSGSQNISEFDSFTDILKSAIRDEIAKNTELSYDFLPLSNIKALLFFNNEKETEKFALERNWPIVNSKVYFNNQSKEKADYEDEMMHEEDQKTNIIEKAMDYAISIENIV
For the molecule B2, the binding result is given as “binds”.

B3: Rpn9, Q04062 1-393 (protein)
chain: MFNNHEIDTILSTLRMEADPSLHPLFEQFEKFYEEKLWFQLSESLTKFFDDAKSTPLRLRLYDNFVSKFYDKINQLSVVKYLLASLKDSKDFDESLKYLDDLKAQFQELDSKKQRNNGSKDHGDGILLIDSEIARTYLLKNDLVKARDLLDDLEKTLDKKDSIPLRITNSFYSTNSQYFKFKNDFNSFYYTSLLYLSTLEPSTSITLAERQQLAYDLSISALLGDKIYNFGELLHHPIMETIVNDSNYDWLFQLLNALTVGDFDKFDSLIKVQISKIPILAQHESFLRQKICLMTLIETVFVKNIRMLSFEDISKATHLPKDNVEHLVMRAISLGLLKGSIDQVNELVTISWVQPRIISGDQITKMKDRLVEWNDQVEKLGKKMEARGQSIWV
As to B3, the binding result is “binds”.
